Data taken from PubChem BioAssay AID2551 (National Center for Advancing Translational Sciences (NCATS), 2010).
Out of some 310,000 compounds screened, about 17,000 (5.5%) were called active. Inconclusive means that the source gave no clear call. Such entries were picked first, then a sample of the others. The call rests on the fitted dose curve; in most records, active means well fitted inhibition curve with a large enough effect; inconclusive means small, poorly fitted or top-dose-only effect, or effect the other way; inactive means no such curve, though single readings can be large or run the other way. Potencies beside an inconclusive call are fits to weak or partial responses and may not hold up.

Chains of the proteins cited; added tags and fusions are not shown. Lines headed by an entry give the natural chain unless they say otherwise; changes in a name come on top.
UniProt P51450: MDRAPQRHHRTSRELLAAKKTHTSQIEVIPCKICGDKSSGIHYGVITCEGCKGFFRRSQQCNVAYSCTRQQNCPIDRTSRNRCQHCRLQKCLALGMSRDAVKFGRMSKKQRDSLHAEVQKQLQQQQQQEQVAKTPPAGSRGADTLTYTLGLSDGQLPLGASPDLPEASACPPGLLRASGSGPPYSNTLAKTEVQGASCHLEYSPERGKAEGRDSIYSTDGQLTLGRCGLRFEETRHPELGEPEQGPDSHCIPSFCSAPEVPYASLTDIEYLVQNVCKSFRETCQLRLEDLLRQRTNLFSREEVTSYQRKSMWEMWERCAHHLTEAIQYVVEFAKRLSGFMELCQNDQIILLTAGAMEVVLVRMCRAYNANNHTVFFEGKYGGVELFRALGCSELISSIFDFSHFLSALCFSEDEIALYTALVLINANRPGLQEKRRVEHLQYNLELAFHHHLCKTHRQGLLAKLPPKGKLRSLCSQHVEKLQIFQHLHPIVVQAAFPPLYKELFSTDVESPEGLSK

The compounds below were run against Nuclear receptor ROR-gamma (Mus musculus) (UniProt P51450) (assay: qHTS for inhibitors of ROR gamma transcriptional activity). Conditions: Drosophila S2 Gal4-RORgamma UAS-luciferase reporter, 20 h; activity change, negative = inhibition: at 53.6 µM (top of the series).
Procedure, shortened: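 Stable Schneider cell line, Gal4 DNA-binding domain fused to ROR gamma, UAS-luciferase. Cmpd 1 hr RT → CuSO4 700 uM final → 20 hr RT → luciferase reagent 10 min → luminescence.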
Further: nearly all actives have a fitted effect of over 60% in size.
On the % scale 0 is the no-effect control and ±100 the full control effect; potency means the concentration at half of the fitted maximal effect.

Potency, inactive:
CC1CCN(c2cc(N)c(Cl)cc2[N+](=O)[O-])CC1, CCN(CC)S(=O)(=O)c1ccc(Cl)c(C(=O)NC2CCN(Cc3ccccc3)CC2)c1, COc1ccc2oc(=O)c(C(=O)NCc3ccccc3)cc2c1, COc1ccc(-c2nc3ncccn3c2Nc2ccccc2)cc1, O=C(/C=C/c1nc2ccccc2s1)N1CCCCCC1, COC(=O)c1cccc(Oc2cccc(C(F)(F)F)c2)n1, CCC(Cc1ccccc1)NS(=O)(=O)c1c(C)nc2sccn2c1=O (stereo unspecified), CCOC(=O)CCCNC(=O)CN1C(=O)NC(c2ccccc2)(c2ccccc2)C1=O, COc1ccc(S(=O)(=O)Nc2ccc(OCC(=O)O)cc2)c2ccccc12, O=C(NCc1ccco1)C(c1ccncc1)N(C(=O)Cc1cccs1)c1ccccc1 (stereo unspecified), Cc1cccc(NC(=S)NC2CC3CCCC(C2)N3CC(C)C)c1C (stereo unspecified), CN(C(=O)CCS(=O)(=O)c1ccc2c(c1)oc(=O)n2C)C1CCCCC1, CS(=O)(=O)N(CC(=O)N1CCN(Cc2ccccc2)CC1)c1cccc(Cl)c1, COCCNc1nc(C)nc2c1nc(-c1ccccc1)n2C1CCN(Cc2ccccc2)C1 (stereo unspecified)

Potency, active:
CCn1c(=N)n(CC(=O)c2cccc(OC)c2)c2ccccc21 6.31 µM, O=C(NCc1cc([N+](=O)[O-])ccc1O)c1cc(-c2ccncc2)nc2ccccc12 14.1 µM, Cc1[nH]n(-c2ccccc2)c(=O)c1/C=N/N1C(=O)c2ccc3c4c(ccc(c24)C1=O)CC3 10 µM, COc1cc(/C=C2\SC(=S)N(NC(=O)c3ccc(O)c(OC)c3)C2=O)ccc1O 7.08 µM, CSCc1nnc(NC(=O)c2ccc(S(=O)(=O)N3CCCCC3C)cc2)o1 (stereo unspecified) 1 µM, Cc1ccc2nc(-c3cccc(Br)c3)cc(C(=O)NC3=NCCS3)c2c1 2.51 µM, O=c1[nH]sc2ccccc12 0.398 µM, Cc1ccc(/C=C2\SC(=S)N(CCCC(=O)N3CCOCC3)C2=O)cc1 3.16 µM, Cc1ccc(C(=O)NC(=S)Nc2ccc(N3CCOCC3)cc2)cc1C 2 µM, CNC(=S)N/N=C/c1cn(Cc2c(F)cccc2Cl)c2ccccc12 0.447 µM, NC(=S)N/N=C/c1ccc2cccc(OCc3ccccc3)c2n1 7.08 µM, Nc1nonc1-n1nnc(C(=O)N/N=C/c2ccc(OCc3ccccc3)cc2)c1CNc1ccccc1 11.2 µM, CC1=NN(C(=S)Nc2ccccc2)C(c2ccccc2)C1 (stereo unspecified) 12.6 µM, S=c1[nH]nc(-c2ccc(Cl)cc2)n1Cc1ccccc1 1.78 µM, CCC/C=N/NC(=O)c1ccccc1O 10 µM

Potency, inconclusive:
COc1cc(NC(=O)c2ccc([N+](=O)[O-])o2)ccc1NC(=O)c1ccco1 3.16 µM [inhibitor, full curve], Cc1ccc(O)c(NC(=O)c2ccc3c(c2)C(=O)N(Cc2cccnc2)C3=O)c1 0.794 µM [activator, partial curve], COc1ccc(NC(=O)N2CCCC(c3nc(-c4ccc(OC)cc4)no3)C2)cc1 (stereo unspecified) 10 µM [activator, partial curve, poor fit], CC(NC(=O)NNC(N)=S)(C(F)(F)F)C(F)(F)F 35.5 µM [inhibitor, single point], CC(C)n1cc(CN2CCC(C(=O)Nc3cccc(-c4cccc(Cl)c4)c3)CC2)cn1 25.1 µM [inhibitor, single point], NNC(=O)COc1ccc(F)cc1 20 µM [inhibitor, single point], COc1cccc(C(=O)NC(=S)Nc2ccc3oc(=O)ccc3c2)c1 0.251 µM [inhibitor, full curve, poor fit], CCOc1ccc2cc(C#N)c(SCC(=O)OC)nc2c1 2.82 µM [activator, partial curve], COc1ccc(C(=O)CSc2nccn2C)c(OC)c1 25.1 µM [inhibitor, single point], COc1ccc(-c2cc(N)n(S(=O)(=O)c3c(F)c(F)c(F)c(F)c3F)n2)cc1OC 31.6 µM [inhibitor, single point], COCCOC(=O)c1c(C)oc2ccc(OC(=O)c3c(OC)cccc3OC)cc12 0.794 µM [activator, single point], Cn1cc(Cl)c(C(=O)Nc2nc3ccc(Cl)cc3s2)n1 17.8 µM [inhibitor, single point], Cc1cc(NNC(=O)Nc2cccc(Cl)c2)nc2c1c(C)nn2C 28.2 µM [inhibitor, single point], CCCN(CC(=O)Nc1ccc(Cl)cc1Cl)C(=O)/C=C/c1cc(OC)ccc1OC 15.8 µM [activator, single point], COc1ccc(C2SCCN2C(=S)Nc2cccc(C(F)(F)F)c2)cc1 (stereo unspecified) 35.5 µM [inhibitor, single point], COc1ccc(OC)c(NC(=O)CC(NC(C)=O)c2ccccc2)c1 (stereo unspecified) 3.98 µM [activator, full curve, poor fit], Cc1ccc(C)c(NC(=O)CN(C)C(=O)[C@@H](NC(=O)c2ccc(C(C)(C)C)cc2)C(C)C)c1 35.5 µM [inhibitor, single point], O=c1ccc(N=Nc2ccccc2)ccc1O 6.31 µM [inhibitor, full curve, poor fit], Cc1ccc(/C=C/C(O)=C2/C(=O)N(C)C3(C)CC2c2ccccc2O3)cc1 (stereo unspecified) 35.5 µM [inhibitor, single point], Cc1c(NC(=O)COC(=O)c2cc(-c3cccc4ccccc34)nc3ccccc23)c(=O)n(-c2ccccc2)n1C 0.316 µM [activator, full curve, poor fit], CCCCCOC(=O)Nc1ccc(S(=O)(=O)Nc2cccc([N+](=O)[O-])c2)cc1 35.5 µM [inhibitor, single point], C=CCN1/C(=C2/SC(=S)N(C)C2=O)Sc2ccccc21 35.5 µM [inhibitor, single point], O=C(/C=C/c1ccccc1)c1ccc(NC2=NCCCS2)cc1 35.5 µM [inhibitor, single point], Cn1c(=O)c2c(n(Cc3ccccc3)c1=O)NC(=O)C2CC(=O)NCc1cccc(Cl)c1 (stereo unspecified) 31.6 µM [activator, single point], COc1cc([N+](=O)[O-])cc(/C=N/NC(=O)Cn2cncn2)c1O 3.55 µM [inhibitor, single point], CCOC(=O)CC(=O)CSc1nc2ccccc2c(=O)n1-c1ccc(C(=O)NCCOC)cc1 10 µM [activator, partial curve], CC(C)N(C(=O)/C=C/c1cccc([N+](=O)[O-])c1)C(C)C 11.2 µM [activator, partial curve], O=C(c1ccccc1Cl)N1N=C(c2ccc(Br)cc2)CC1c1nc2ccccc2[nH]1 (stereo unspecified) 35.5 µM [inhibitor, single point], CC(=O)Nc1ccc(NC(=O)c2cccc3c2-c2ccccc2C3=O)cc1 22.4 µM [inhibitor, single point], COc1ccc(S(=O)(=O)Cc2ccc(C(=O)NCCCN(C)c3ccccc3)o2)cc1 14.1 µM [activator, single point], O=C(Nc1ccccc1C(=O)O)c1ccc(NC(=O)C2CCCO2)cc1 (stereo unspecified) 28.2 µM [inhibitor, single point], OC1(C2(O)CC(c3ccccc3)ON2)CCCCC1 (stereo unspecified) 35.5 µM [inhibitor, single point], Cc1sc2nc(SCC(=O)c3cc(C)n(CC4CCCO4)c3C)n(C(C)C)c(=O)c2c1C (stereo unspecified) 22.4 µM [inhibitor, single point], COc1ccccc1C(=O)Oc1ccc(C(C)C)cc1 17.8 µM [activator, partial curve], CN(C)C(=O)c1ccc(-c2nc(NCc3cccs3)c3ccccc3n2)cc1 12.6 µM [activator, partial curve], CCCCC(=O)NC(=S)Nc1ccc(NC(=O)C(C)C)c(OC)c1 17.8 µM [inhibitor, single point], O=C(/C=C/c1cccc([N+](=O)[O-])c1)NC(=S)Nc1cccc(NC(=O)c2ccccc2Cl)c1 20 µM [inhibitor, single point], Cc1cc(=O)[nH]c(N/N=C/c2cc(C)n(-c3ccccc3)c2C)n1 3.16 µM [inhibitor, partial curve, poor fit], COc1ccccc1CNC(=O)C1CC(c2ccc([N+](=O)[O-])cc2)=NO1 (stereo unspecified) 25.1 µM [activator, single point], CCOC(=O)N1CCN(c2nc3ccccc3nc2C(C#N)S(=O)(=O)c2ccc(C)cc2)CC1 (stereo unspecified) 7.08 µM [activator, partial curve], O=C(Cc1ccccc1)NC(NC(=S)Nc1cc(Cl)ccc1Cl)C(Cl)(Cl)Cl (stereo unspecified) 12.6 µM [inhibitor, single point]

Activity change, negative = inhibition, inactive:
COC(=O)C/C=C\[C@@H](C)[C@@H]1C=C[C@H](OC(C)=O)[C@H](COC(C)=O)O1 -15% [at 10 µM]
